These are yes or no findings as the source states them, for the method shown. In cells and extracts the contact can be indirect. Some results given as binding are weak or reduced against the parent protein; the word gives no strength.

The chains behind the UniProt entries cited, without tags or fusion partners.
UniProt Q03113: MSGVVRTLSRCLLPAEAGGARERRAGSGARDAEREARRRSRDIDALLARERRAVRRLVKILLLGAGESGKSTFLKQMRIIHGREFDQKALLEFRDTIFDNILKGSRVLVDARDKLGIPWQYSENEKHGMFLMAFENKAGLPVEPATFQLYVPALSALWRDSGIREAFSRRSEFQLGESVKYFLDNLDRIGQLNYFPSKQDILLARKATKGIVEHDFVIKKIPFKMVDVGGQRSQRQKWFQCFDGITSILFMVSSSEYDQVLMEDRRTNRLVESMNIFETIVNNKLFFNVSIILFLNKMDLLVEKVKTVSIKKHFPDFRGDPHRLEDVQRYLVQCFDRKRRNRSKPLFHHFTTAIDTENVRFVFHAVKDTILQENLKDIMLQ
UniProt P50148: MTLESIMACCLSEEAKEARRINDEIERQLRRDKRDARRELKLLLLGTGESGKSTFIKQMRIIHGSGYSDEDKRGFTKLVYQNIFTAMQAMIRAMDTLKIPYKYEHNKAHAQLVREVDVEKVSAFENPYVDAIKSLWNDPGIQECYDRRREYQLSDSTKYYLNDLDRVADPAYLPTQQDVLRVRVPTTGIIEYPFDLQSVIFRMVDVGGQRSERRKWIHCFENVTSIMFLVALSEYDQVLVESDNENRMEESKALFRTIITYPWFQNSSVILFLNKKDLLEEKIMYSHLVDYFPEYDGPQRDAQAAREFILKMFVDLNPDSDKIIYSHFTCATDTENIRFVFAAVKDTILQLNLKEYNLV

The target of this test is T1, GPR91 (human (endogenous in hMSC)) (UniProt Q9BXA5).
T1 sequence: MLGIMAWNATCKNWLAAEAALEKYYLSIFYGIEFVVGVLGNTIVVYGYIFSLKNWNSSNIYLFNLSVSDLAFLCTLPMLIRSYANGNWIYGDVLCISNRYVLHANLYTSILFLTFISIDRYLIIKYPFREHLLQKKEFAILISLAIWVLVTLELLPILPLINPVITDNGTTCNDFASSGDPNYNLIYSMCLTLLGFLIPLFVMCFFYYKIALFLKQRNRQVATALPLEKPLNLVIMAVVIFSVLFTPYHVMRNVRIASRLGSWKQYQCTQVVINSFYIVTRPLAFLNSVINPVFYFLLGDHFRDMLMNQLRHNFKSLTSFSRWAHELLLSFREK
Briefly: co-IP; endogenous proteins of hMSC lysate; control cells of the experiment with or without succinate for 5 min; the precipitating antibody is not told.

Turning to Gα12 (from UniProt Q03113 1-381), the binding result is on record as “binds”.
As to Gαq (from UniProt P50148 1-359), the binding entry is “binds”.

For the origin of these results see publication PMC5626702.
